Reference: ChEMBL document CHEMBL5252635, “The Mycobacterium tuberculosis mycothiol S-transferase is divalent metal-dependent for mycothiol binding and transfer” (2023)
Values after ≈ are worked out from the molar mass of the structure shown.

Legend:
[1] = tested on: Mycobacterium tuberculosis; test: Antibacterial activity against wild type Mycobacterium tuberculosis CDC1551 incubated for 10 days by resazurin dye based microtiter plate assay; type: functional; conditions: CDC1551, 240 h, time 10 day
In short: (§1)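 MIC in 7H9-ADC-Tween 80 medium. Strains (CDC1551 WT, rv0443 KO) grown to mid-log (OD600 ~0.8), diluted to OD600 0.01, exposed to serial antibiotic dilutions for 10 days at 37 °C; MIC read by resazurin blue test.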

[2] = tested on: Mycobacterium tuberculosis; test: Antibacterial activity against Mycobacterium tuberculosis rv0443 knockout strain incubated for 10 days by resazurin dye based microtiter plate assay; type: functional; conditions: rv0443, 240 h, time 10 day; in short: as §1

For `NNC(=O)c1ccncc1` [ISONIAZID], the MIC [1] was 0.02 µg/mL (≈ 0.146 µM) and the MIC [2] was 0.02 µg/mL (≈ 0.146 µM).
